PubChem BioAssay AID504795 | Drosophila RNAi Screening Center, 2011
Only reagents picked out of a larger screen are listed. 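Every listed dsRNA shows some phenotype; how reagents were selected for listing is not stated.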

Aim: 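Knock-downs causing abnormal branching, bundling, swelling or growth of cultured neurons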 (primary screen)
Cell system: primary Drosophila neurons and glia
Reagents: long dsRNA against Drosophila genes, 250 ng dsRNA per well
Timing: one week
Measurement: 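Descriptive morphology terms assigned by visual inspection of live automated images of GFP-marked cells, taken one week after adding 250 ng dsRNA per well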

| gene | dsRNA | phenotype seen, replicate 1 | phenotype seen, replicate 2 |
| --- | --- | --- | --- |
| CG10650 (GeneID 35162) | DRSC02085 | abnormal cell clusters | – |
| ND-49 (GeneID 43798) | DRSC17151 | sheet-like cell extensions | – |
| CG1552 (GeneID 32035) | DRSC19665 | too many neurite branches | – |
| CG15098 (GeneID 37174) | DRSC06527 | axon bundles split apart | – |
| CG12934 (GeneID 36124) | DRSC06247 | axon bundles split apart | – |
| sced (GeneID 35564) | DRSC04990 | too many neurite branches | – |
| Rad51D (GeneID 35937) | DRSC06840 | axon bundles split apart | – |
| CG2841 (GeneID 44529) | DRSC22106 | axon bundles split apart | – |
| CG13594 (GeneID 37940) | DRSC04229 | axon bundles split apart | – |
| gw (GeneID 43808) | DRSC17135 | axon bundles split apart | – |
| Pus1 (GeneID 42440) | DRSC15548 | too many neurite branches | – |
| zfh1 (GeneID 43650) | DRSC17098 | axon bundles split apart | – |
| CG5327 (GeneID 37138) | DRSC06930 | axon bundles split apart | – |
| Jwa (GeneID 35128) | DRSC02048 | too many neurite branches | – |
| rhea (GeneID 38978) | DRSC11300 | abnormal cell clusters | – |
| CG17328 (GeneID 34962) | DRSC22448 | too many neurite branches | – |
| mip130 (GeneID 31153) | DRSC18575 | abnormal cell clusters | – |
| sgl (GeneID 38760) | DRSC21431 | axon bundles split apart | – |
| CG5382 (GeneID 42618) | DRSC15786 | reduced axon outgrowth | – |
| CG31663 (GeneID 33363) | DRSC00389 | axon bundles split apart | – |
| CG34168 (GeneID 50457) | DRSC01938 | axon bundles split apart | – |
| akirin (GeneID 38821) | DRSC11000 | cell fragments present | – |
| brp (GeneID 35977) | DRSC06246 | fewer cells | – |
| brp (GeneID 35977) | DRSC06801 | fewer cells | – |
| CG42323 (GeneID 32825) | DRSC19629 | too many neurite branches | – |
| Sgs3 (GeneID 39288) | DRSC11280 | too many neurite branches | – |
| dec (GeneID 31691) | DRSC21477 | too many neurite branches | – |
| Or47b (GeneID 36212) | DRSC07492 | abnormal cell clusters | – |
| TwdlQ (GeneID 43214) | DRSC14745 | too many neurite branches | – |
| CG42534 (GeneID 43298) | DRSC14759 | axon bundles split apart | – |
| raskol (GeneID 32754) | DRSC19967 | beaded; swollen axons | – |
| Lsm10 (GeneID 36141) | DRSC06250 | too many neurite branches | – |
| RpL27 (GeneID 43103) | DRSC15638 | beaded; swollen axons | – |
| Ir51a (GeneID 3771848) | DRSC06256 | fewer cells | – |
| Ir52d (GeneID 36716) | DRSC06264 | too many neurite branches | – |
| CG8197 (GeneID 35912) | DRSC07105 | fewer cells | – |
| meigo (GeneID 42510) | DRSC15877 | too many neurite branches | – |
| Dp1 (GeneID 37116) | DRSC07403 | abnormal cell clusters | – |
| Task7 (GeneID 41125) | DRSC16477 | axon bundles split apart | – |
| CG13920 (GeneID 38203) | DRSC08389 | too many neurite branches | – |
| RpL22 (GeneID 31022) | DRSC18707 | reduced axon outgrowth | – |
| RpL22 (GeneID 31022) | DRSC22819 | too many neurite branches | – |
| ND-PDSW (GeneID 44228) | DRSC00715 | axon bundles split apart | – |
| e(y)2 (GeneID 45848) | DRSC19640 | abnormal cell clusters | – |
| Cow (GeneID 42733) | DRSC14680 | sheet-like cell extensions | – |
| Spn43Ad (GeneID 35639) | DRSC06770 | axon bundles split apart | – |
| CG9098 (GeneID 33840) | DRSC03136 | weaker green signal | – |
| e (GeneID 42521) | DRSC16936 | too many neurite branches | – |
| Acp53C14c (GeneID 3346203) | DRSC05626 | too many neurite branches | – |
| CG32512 (GeneID 33085) | DRSC21401 | sheet-like cell extensions | – |
| CG11504 (GeneID 43557) | DRSC14318 | cell fragments present | – |
| CG14537 (GeneID 34072) | DRSC02395 | axon bundles split apart | – |
| mon2 (GeneID 326157) | DRSC03112 | too many neurite branches | – |
| pdm2 (GeneID 34673) | DRSC02497 | abnormal cell clusters | – |
| Vha68-1 (GeneID 45668) | DRSC03470 | abnormal cell clusters | – |
| CG3703 (GeneID 31045) | DRSC18173 | too many neurite branches | – |
| CG17490 (GeneID 3355125) | DRSC03797 | beaded; swollen axons | – |
| ATPsynC (GeneID 43693) | DRSC15236 | too many neurite branches | – |
| Dscam2 (GeneID 38788) | DRSC08869 | abnormal cell clusters | – |
| RpL35 (GeneID 31483) | DRSC18347 | weaker green signal | – |
| Hcf (GeneID 43788) | DRSC17143 | axon bundles split apart | – |
| prc (GeneID 43930) | DRSC11385 | sheet-like cell extensions | – |
| toe (GeneID 39418) | DRSC09783 | cell fragments present | – |
| heph (GeneID 48571) | DRSC15436 | sheet-like cell extensions | – |
| ND-B14 (GeneID 36159) | DRSC07029 | axon bundles split apart | – |
| ken (GeneID 37785) | DRSC04696 | too many neurite branches | – |
| CG15126 (GeneID 50202) | DRSC06548 | axon bundles split apart | – |
| CG5447 (GeneID 43192) | DRSC15801 | abnormal cell clusters | – |
| Gad1 (GeneID 38484) | DRSC08661 | sheet-like cell extensions | – |
| PCNA2 (GeneID 35257) | DRSC02030 | axon bundles split apart | – |
| CG17362 (GeneID 39545) | DRSC10267 | sheet-like cell extensions | – |
| rost (GeneID 34222) | DRSC03603 | reduced axon outgrowth | – |
| CG16894 (GeneID 37280) | DRSC21785 | too many neurite branches | – |
| jv (GeneID 318008) | DRSC08832 | axon bundles split apart | – |
| Cep290 (GeneID 38099) | DRSC08359 | abnormal cell clusters | – |
| CG30339 (GeneID 246549) | DRSC05168 | abnormal cell clusters | – |
| Unr (GeneID 38963) | DRSC10761 | axon bundles split apart | – |
| CG44837 (GeneID 5740513) | DRSC10133 | abnormal cell clusters | – |
| CG4629 (GeneID 33284) | DRSC00659 | reduced axon outgrowth | – |
| CG34242 (GeneID 5740417) | DRSC09185 | weaker green signal | – |
| ush (GeneID 33225) | DRSC00843 | reduced axon outgrowth | – |
| RpL23 (GeneID 37628) | DRSC04648 | axon bundles split apart | – |
| Cks85A (GeneID 41034) | DRSC16562 | axon bundles split apart | – |
| Dyb (GeneID 36362) | DRSC07208 | axon bundles split apart | – |
| Dyb (GeneID 36362) | DRSC22862 | too many neurite branches | – |
| Nepl10 (GeneID 36366) | DRSC07212 | fewer cells | – |
| Cyp313a3 (GeneID 41488) | DRSC16626 | too many neurite branches | – |
| CG30379 (GeneID 246578) | DRSC05070 | abnormal cell clusters | – |
| Buffy (GeneID 36251) | DRSC05957 | axon bundles split apart | – |
| CG13337 (GeneID 36518) | DRSC06371 | axon bundles split apart | – |
| CG15345 (retired record) (GeneID 50402) | DRSC22712 | axon bundles split apart | – |
| CG33978 (GeneID 3885646) | DRSC17106 | too many neurite branches | – |
| Cisd2 (GeneID 43459) | DRSC14904 | axon bundles split apart | – |
| Burs (GeneID 42560) | DRSC14595 | abnormal cell clusters | – |
| CG30495 (GeneID 246651) | DRSC06703 | too many neurite branches | – |
| fl(2)d (GeneID 36527) | DRSC07620 | abnormal cell clusters | – |
| CG4021 (GeneID 37484) | DRSC04439 | fewer cells | – |
| ACXA (GeneID 53432) | DRSC00844 | abnormal cell clusters | – |
| MED11 (GeneID 40042) | DRSC10739 | axon bundles split apart | – |
| CG12926 (GeneID 35996) | DRSC06239 | sheet-like cell extensions | – |
| RpL9 (GeneID 34526) | DRSC03418 | abnormal cell clusters | – |
| Mp20 (GeneID 36468) | DRSC07474 | sheet-like cell extensions | – |
| PIG-F (GeneID 40139) | DRSC11069 | too many neurite branches | – |
| Mpcp1 (GeneID 37297) | DRSC07337 | axon bundles split apart | – |
| Seipin (GeneID 31245) | DRSC18654 | abnormal cell clusters | – |
| CG15423 (GeneID 33616) | DRSC00437 | axon bundles split apart | – |
| CG11350 (GeneID 38554) | DRSC08181 | reduced axon outgrowth | abnormal cell clusters |
| CG13250 (GeneID 40284) | DRSC11698 | axon bundles split apart | – |
| Cp16 (GeneID 39001) | DRSC11119 | abnormal cell clusters | – |
